Each number is a percent effect as filed. The controls that fix the scale are not given in the record; negative values are as filed. The compounds are a random part of those screened. Two or more numbers in one place are separate tests of the same structure; such repeats can differ widely.

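Viability assay of Plasmodium falciparum sporozoites; the read-out is not stated. The concentration is filed as 10 mM, unlikely as a test dose, so the dose is not known. The record gives no direction; compounds that gave an IC50 in retests scored well above the rest, so higher reads as lower viability. Strong results were mostly tested again. About 34,000 compounds were tested under these conditions; 0.84% (about 280) showed 50% or more at least once.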

compound | Percent Effect
Cc1ccc(CNC2CCc3[nH]c(=O)ccc3C2)cc1C.O=C(O)C(F)(F)F (stereo unspecified) | 0.7895
COc1cccc(CN2CCCC2c2c(C)nn(C)c2C)c1 (stereo unspecified) | -13.08
Cc1nn(C)c(Cl)c1C1CCCN1C(=O)c1cccn1C (stereo unspecified) | 1.718
CS(=O)(=O)c1ccc(-c2cnc(C3CCCN3)cn2)cc1.Cl (stereo unspecified) | -1.006
Cn1nc(CN2CCOCC2)c2c1CN(Cc1ccsc1)C2.O=C(O)C(F)(F)F.O=C(O)C(F)(F)F | -2.309
CCN(CCN(C)C)c1nc(CCN)nc2sc(C)c(C)c12 | -12
COc1ccc(CN2CCC3(CC(Nc4ccncn4)C3)C2)c(OC)c1 (stereo unspecified) | -12.25
CC(=O)NCCCC(=O)N1CCC(Sc2cccc(C)c2)CC1 | -0.641
CC(C)NC(=O)N1Cc2nccn2CC(COc2cccnc2)C1.O=C(O)C(F)(F)F (stereo unspecified) | 6.914
CCCSc1ncc(Cl)c(C(=O)NC(CCSC)C(=O)O)n1 (stereo unspecified) | 5.263
COCc1noc(-c2ccc(N3CCCC3c3nccs3)nc2)n1 (stereo unspecified) | 12.02
O=S(=O)(CCN1CCOC(Cn2cccn2)C1)C(F)(F)F (stereo unspecified) | -10.26
CC(C)c1ccc(OCCNC(=O)CN2CCN(C)CC2C)cc1 (stereo unspecified) | 0.8043
[H][C@]12CC[C@]([H])(CN(C(=O)c3ccccn3)C1)N(C(=O)CCC(F)(F)F)C2 | -3.772
COCC1CN(Cc2cnn(C)c2)Cc2nn(C)cc21.O=C(O)C(F)(F)F (stereo unspecified) | -12.65
Cc1ccc(N2CCCC(N(C)Cc3cc(C)no3)C2)nn1 (stereo unspecified) | -2.79
CCNC(c1cccnc1)c1ccc(F)c(C)c1 (stereo unspecified) | -0.5511
C[C@@H]1CN(c2nc(O)cc(Cc3ccccc3F)n2)C[C@H](C)O1 | 9.241
Cc1ccc(CC(=O)N2CCOC(c3nc(C)n[nH]3)C2)cn1 (stereo unspecified) | -8.511
CCn1c(N)nc2cc(C(=O)NCc3ccccc3Cl)cnc21 | -6 & 9.799 & 1.435
Cc1cnc(CN(C)C2CCN(Cc3nc4ccccc4o3)C2)o1 (stereo unspecified) | 5.915
CS(=O)(=O)NCc1cncc2c1CCN(C(=O)c1ccccn1)C2 | 7.926
Cc1ccc(N2CC3(COCCN(Cc4nccs4)C3)OCC2=O)s1.O=C(O)C(F)(F)F (stereo unspecified) | 3.687
O=C(O)C(F)(F)F.O=C(O)C(F)(F)F.O=C(O)C(F)(F)F.[H][C@@]12CN(Cc3ccncc3)C[C@]1([H])[C@H](OC)CCN2Cc1cccs1 | 7.626
O=C(c1ccc2c(c1)COC2)N1CCCN(Cc2cscn2)CC1 | -6.415
Cc1[nH]c2ccccc2c1-c1ccnc(NC[C@H](O)CO)n1 | -3.186
CCC1CCCN(Cc2nc(N)c3ccccc3n2)C1 (stereo unspecified) | 1.877
CS(=O)(=O)C1(C(=O)NC2CCc3nccn3C2)CCCC1 (stereo unspecified) | -22.06
CNc1cc(C2CN(C(=O)c3ccn(C)n3)CCO2)nc(C)n1 (stereo unspecified) | 17.63
CN(C)S(=O)(=O)N1CC[C@]2(C[C@H](Oc3ncccc3F)CO2)C1.O=C(O)C(F)(F)F | -16
Cc1nc(C2CCCNC2)cc(N(Cc2nccn2C)C2CC2)n1 (stereo unspecified) | 22.81
O=C(c1ccc(F)c(F)c1)N1CCCC1CN1CCCC1 (stereo unspecified) | 11.16
Cc1nccn1C1CCCN(C(=O)c2ccc3cc[nH]c3c2)C1 (stereo unspecified) | 8.667
COCCNC(=O)CN1CCN(c2nc(C)cs2)CC1 | -2.234
[H][C@@]12CCCO[C@]1([H])[C@H](OCc1cccnc1)CN2C(=O)c1ccncc1 | -7.056
O=C(NCC(O)CO)Nc1cc(Br)ccc1F (stereo unspecified) | 8.421
Cc1cc(C)n(C2CCN(Cc3nc4ccccc4n3C)CC2)n1 | 1.623
Cc1ccoc1C(=O)NCCOc1ccc(C(F)(F)F)cn1 | 4.788
c1csc(-c2nc(CN3CCCCC3Cn3cncn3)cs2)c1 (stereo unspecified) | 5.882
COc1ncccc1CNC(=O)NC(C)Cn1cccn1 (stereo unspecified) | 11.3
CCCn1nnnc1CN(CC)CC1COc2ccccc2O1 (stereo unspecified) | 1.125
Clc1ccc(-c2nc(CN3CCCC3Cn3cncn3)co2)cc1 (stereo unspecified) | 6.213
NC(=O)C1CN(C(=O)Nc2ccc(SC(F)(F)F)cc2)CCO1 (stereo unspecified) | 26.37
Cc1cc(N(C)C)nc(NCCn2cccn2)n1 | -16.82
O=C(O)C(F)(F)F.O=C(O)C(F)(F)F.c1cnc(N2CCCC3(CCN(CC4CC4)C3)C2)nc1 (stereo unspecified) | 3.535
COCCCN1CC2(CCCN(CCn3cc(Cl)cn3)C2)CCC1=O (stereo unspecified) | 0.3581
CCn1nc2c(cc1=O)CN(Cc1nc(-c3cccs3)no1)CC2 | 2.563
CC(C)N1CCC(O)(CNC(=O)CC2OCCc3ccccc32)CC1 (stereo unspecified) | 4.71
CCN(CC)C(=O)c1c(Br)cnn1CC | 11.77
CCSc1cc(C(=O)NCc2ccccc2O)ccn1 | -7.91
CCN1CCC(N2CCC(c3nc(C)cc(C)n3)C2)CC1 (stereo unspecified) | 0.4521
c1ccc(CCCN2CCOC(Cn3cccn3)C2)cc1 (stereo unspecified) | 6.701
c1cnc(C2CCCN2c2cnccn2)cn1 (stereo unspecified) | 1.68
CCOc1ncccc1NC(=O)NCC(C)O (stereo unspecified) | 0.4272
CN(CCc1ccccn1)C(=O)Nc1cc(C(F)(F)F)c[nH]c1=O | 13.21
[H][C@]12CCN(C(=O)c3ccc4c(c3)CCC4)CC[C@]1([H])N(C(C)C)C(=O)CO2 | 9.535
CC(C)C(=O)N1CCCC(Cc2ccccn2)C1 (stereo unspecified) | 7.99
CC(C)OCc1ncn2c1CN(Cc1nccs1)CCC2.O=C(O)C(F)(F)F | 11.78
O=C(c1ccccc1OC1CCCC1)N1CCCC(n2cncn2)C1 (stereo unspecified) | -7.229
Cc1cccc(Oc2nccnc2C2CCN(C(=O)C(C)(C)N)CC2)c1 | -2.343
Cn1cc(-c2nnc3sc(C4CC4)nn23)cn1 | -4.121
Cc1cc(C)n(CCCNC(=O)[C@@H](C)NC(=O)OC(C)(C)C)n1 | -10.48
CC(=O)NC1CCCN(Cc2csc(-c3ncccn3)n2)C1 (stereo unspecified) | 26.54
CC(C)(C)C(=O)NCCc1cc(N2CCOCC2)nc(NC2CC2)n1 | 4.941
COCC1CN(C(=O)c2ccc(C)o2)Cc2nccn2C1 (stereo unspecified) | 10.68
[H][C@]12CC[C@]([H])(CN(S(=O)(=O)N(C)C)C1)N(C(=O)c1cn(C)nc1C)C2 | 8.155
O=C(c1cn(CC(=O)N2CCCCC2)c2ccccc12)C1CC1 | 1.422

9 of the entries, repeated:

For O=C(c1ccccc1OC1CCCC1)N1CCCC(n2cncn2)C1 (stereo unspecified) the result was -7.229%.
For Cc1ccoc1C(=O)NCCOc1ccc(C(F)(F)F)cn1 the result was 4.788%.
For C[C@@H]1CN(c2nc(O)cc(Cc3ccccc3F)n2)C[C@H](C)O1 the result was 9.241%.
For COCCNC(=O)CN1CCN(c2nc(C)cs2)CC1 the result was -2.234%.
For O=C(O)C(F)(F)F.O=C(O)C(F)(F)F.O=C(O)C(F)(F)F.[H][C@@]12CN(Cc3ccncc3)C[C@]1([H])[C@H](OC)CCN2Cc1cccs1 the result was 7.626%.
For CCn1nc2c(cc1=O)CN(Cc1nc(-c3cccs3)no1)CC2 the result was 2.563%.
For c1ccc(CCCN2CCOC(Cn3cccn3)C2)cc1 (stereo unspecified) the result was 6.701%.
For CCSc1cc(C(=O)NCc2ccccc2O)ccn1 the result was -7.91%.
For CC(C)N1CCC(O)(CNC(=O)CC2OCCc3ccccc32)CC1 (stereo unspecified) the result was 4.71%.

The values are deposited in ChEMBL (CHEMBL3988442, “University of Dundee, Small-Polar-MMV Screening Library” (2021)).